Here are results for 2 molecules from publication PMC4681539.

The target in experiment [1] is T1, GP64, BmNPV envelope fusion protein (Bombyx mori nucleopolyhedrovirus (BmNPV)) (UniProt P41722).
T1 sequence: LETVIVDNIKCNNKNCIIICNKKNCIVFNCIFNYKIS
As to the kind of experiment: co-IP; GP64 and Flag-tagged BmREEPa over-expressed together in BmN-SWU1 cells, lysed 72 h post-transfection; anti-Flag or anti-GP64 antibody on protein A magnetic beads; eluted proteins blotted with anti-GP64 and anti-Flag respectively; IgG as control.

The target of experiment [2] is BmREEPa with Flag tags (Bombyx mori). The description is as above.

These are yes or no findings as the source states them, for the method shown. Binding seen in cells or lysates may run through a third protein. Binding calls can cover weak binding; strength is not graded here. Sequences can lack the tags named with a protein.

As for BmREEPa with Flag tags (Bombyx mori), the binding entry in experiment [1] is reported as “binds”.

B1: GP64, BmNPV envelope fusion protein (peptide, UniProt P41722 1-37)
chain: LETVIVDNIKCNNKNCIIICNKKNCIVFNCIFNYKIS
On to B1, for which the binding result in experiment [2] is on record as “binds”.
